# Reference: paper doi:10.1101/2025.06.22.660944, “Structures of MmpL complexes reveal the assembly and mechanism of this family of transporters” (bioRxiv, 2025)
# Amino acid sequences for entries named in this document (tags omitted).
# UniProt A0R0B3: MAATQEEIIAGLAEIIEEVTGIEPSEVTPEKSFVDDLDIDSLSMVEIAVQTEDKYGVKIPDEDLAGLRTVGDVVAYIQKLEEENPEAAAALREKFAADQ
# No constants are given. Whether binding was seen depends on the method and setting. Binding calls can cover weak binding; strength is not graded here.
# Key:
# [1] = biological target: MmpL5 transporter (M. smegmatis, MSMEG_1382) (M. smegmatis) (UniProt A0QS80); assay: cryo-EM structure; particle class 3: dipartite AcpM-MmpL5 trimeric complex, 3.37 Å; same LMNG-solubilized crude membrane sample, Build and Retrieve processing
# [2] = biological target: MmpL5 transporter (M. smegmatis, MSMEG_1382) (M. smegmatis) (UniProt A0QS80); assay: cryo-EM structure; particle class 2: tripartite AcpM-MmpL5-MmpS5 trimeric complex, 2.81 Å; same LMNG-solubilized crude membrane sample, Build and Retrieve processing
substance,measurement,setting,value
meromycolate extension acyl carrier protein M (AcpM) (from UniProt A0R0B3 1-99),binding,[1],binds
same,binding,[2],binds
